According to patent publication US7456201B2, “Pharmaceutically active compounds and methods of use” (Laboratoires Serono SA, priority 2000, dated 2008):
At least one compound was matched to its structure with a doubt left.

System: untransfected CHO parental cells
Assay: CHO parental cells assay (intracellular cAMP, RIA)
Format: cell-based, Chinese Hamster
Settings: one hour incubation, 0.1 mM MIX
Procedure: Briefly CHO parental cells were plated in 96 well packard view plates 5×10^4 cells/well in serum containing media. […] The wells were washed with serum free assay medium (containing 0.1 mM MIX) and pre-incubated for 15 minutes in this medium. Compound 1 and forskolin (positive control) were added and the cells were incubated for an additional one hour. The cells were lysed and intracellular cAMP was measured using the Amersham direct one step cAMP-RIA kit according to the manufacturers directions.

C=C[C@@]1(C)CC(=O)[C@]2(O)[C@@]3(C)[C@@H](O)CCC(C)(C)[C@@H]3[C@H](O)[C@H](OC(C)=O)[C@@]2(C)O1 [forskolin]
intracellular cAMP response over background: five fold response over background
